Results from publication doi:10.1101/2023.11.21.567992.
No constants are given. Whether binding was seen depends on the method and setting. In cells and extracts the contact can be indirect. A yes stands for co-enrichment or nearness to the bait. Other partners may have been found. Sequences can lack the tags named with a protein.

B1: LRRC45 (protein, UniProt Q96CN5 1-670)
chain: MEEFRRSYSRLCRESGAEPQEAVLQQLHQLPRGRLDLATQSLTVETCRALGKLLPRETLCTELVLSDCMLSEEGATLLLRGLCANTVLRFLDLKGNNLRAAGAEALGKLLQQNKSIQSLTLEWNSLGTWDDAFATFCGGLAANGALQRLDLRNNQISHKGAEELALALKGNTTLQQLDLRWNNVGLLGGRALMNCLPSNRTLWRLDLAGNNIPGDVLRAVEQAMGHSQDRLTTFQENQARTHVLSKEVQHLREEKSKQFLDLMETIDKQREEMAKSSRASAARVGQLQEALNERHSIINALKAKLQMTEAALALSEQKAQDLGELLATAEQEQLSLSQRQAKELKLEQQEAAERESKLLRDLSAANEKNLLLQNQVDELERKFRCQQEQLFQTRQEMTSMSAELKMRAIQAEERLDMEKRRCRQSLEDSESLRIKEVEHMTRHLEESEKAMQERVQRLEAARLSLEEELSRVKAAALSERGQAEEELIKAKSQARLEEQQRLAHLEDKLRLLAQARDEAQGACLQQKQVVAEAQTRVSQLGLQVEGLRRRLEELQQELSLKDQERVAEVSRVRVELQEQNGRLQAELAAQEALREKAAALERQLKVMASDHREALLDRESENASLREKLRLREAEIARIRDEEAQRASFLQNAVLAYVQASPVRTLSPPK
B2: KIFC1 (protein, UniProt Q9BW19 1-673)
chain: MDPQRSPLLEVKGNIELKRPLIKAPSQLPLSGSRLKRRPDQMEDGLEPEKKRTRGLGATTKITTSHPRVPSLTTVPQTQGQTTAQKVSKKTGPRCSTAIATGLKNQKPVPAVPVQKSGTSGVPPMAGGKKPSKRPAWDLKGQLCDLNAELKRCRERTQTLDQENQQLQDQLRDAQQQVKALGTERTTLEGHLAKVQAQAEQGQQELKNLRACVLELEERLSTQEGLVQELQKKQVELQEERRGLMSQLEEKERRLQTSEAALSSSQAEVASLRQETVAQAALLTEREERLHGLEMERRRLHNQLQELKGNIRVFCRVRPVLPGEPTPPPGLLLFPSGPGGPSDPPTRLSLSRSDERRGTLSGAPAPPTRHDFSFDRVFPPGSGQDEVFEEIAMLVQSALDGYPVCIFAYGQTGSGKTFTMEGGPGGDPQLEGLIPRALRHLFSVAQELSGQGWTYSFVASYVEIYNETVRDLLATGTRKGQGGECEIRRAGPGSEELTVTNARYVPVSCEKEVDALLHLARQNRAVARTAQNERSSRSHSVFQLQISGEHSSRGLQCGAPLSLVDLAGSERLDPGLALGPGERERLRETQAINSSLSTLGLVIMALSNKESHVPYRNSKLTYLLQNSLGGSAKMLMFVNISPLEENVSESLNSLRFASKVNQCVIGTAQANRK
B3: KIF2C (protein, UniProt Q99661 1-725)
chain: MAMDSSLQARLFPGLAIKIQRSNGLIHSANVRTVNLEKSCVSVEWAEGGATKGKEIDFDDVAAINPELLQLLPLHPKDNLPLQENVTIQKQKRRSVNSKIPAPKESLRSRSTRMSTVSELRITAQENDMEVELPAAANSRKQFSVPPAPTRPSCPAVAEIPLRMVSEEMEEQVHSIRGSSSANPVNSVRRKSCLVKEVEKMKNKREEKKAQNSEMRMKRAQEYDSSFPNWEFARMIKEFRATLECHPLTMTDPIEEHRICVCVRKRPLNKQELAKKEIDVISIPSKCLLLVHEPKLKVDLTKYLENQAFCFDFAFDETASNEVVYRFTARPLVQTIFEGGKATCFAYGQTGSGKTHTMGGDLSGKAQNASKGIYAMASRDVFLLKNQPCYRKLGLEVYVTFFEIYNGKLFDLLNKKAKLRVLEDGKQQVQVVGLQEHLVNSADDVIKMIDMGSACRTSGQTFANSNSSRSHACFQIILRAKGRMHGKFSLVDLAGNERGADTSSADRQTRMEGAEINKSLLALKECIRALGQNKAHTPFRESKLTQVLRDSFIGENSRTCMIATISPGISSCEYTLNTLRYADRVKELSPHSGPSGEQLIQMETEEMEACSNGALIPGNLSKEEEELSSQMSSFNEAMTQIRELEEKAMEELKEIIQQGPDWLELSEMTEQPDYDLETFVNKAESALAQQAKHFSALRDVIKALRLAMQLEEQASRQISSKKRPQ

These molecules were tested against T1, FLAG-TurboID-Nek2A (UniProt P51955) (assay: proximity labelling).
T1 sequence: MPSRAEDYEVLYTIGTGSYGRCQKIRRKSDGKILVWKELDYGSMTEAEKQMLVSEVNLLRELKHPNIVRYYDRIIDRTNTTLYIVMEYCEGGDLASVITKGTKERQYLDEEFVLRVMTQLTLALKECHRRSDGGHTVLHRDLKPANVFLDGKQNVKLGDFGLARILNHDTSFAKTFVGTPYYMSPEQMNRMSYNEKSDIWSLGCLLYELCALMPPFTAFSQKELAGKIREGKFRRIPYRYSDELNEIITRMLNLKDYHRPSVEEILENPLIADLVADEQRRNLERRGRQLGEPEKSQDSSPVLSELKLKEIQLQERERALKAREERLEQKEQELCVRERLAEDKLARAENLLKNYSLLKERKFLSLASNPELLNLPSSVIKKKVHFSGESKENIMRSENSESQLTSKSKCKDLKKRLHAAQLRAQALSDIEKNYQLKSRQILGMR
For CROCC (from UniProt Q5TZA2 1-2017), the binding was “binds”. For B1, the binding was “binds”. With B2 the binding was “binds”. B3 was tested, and the binding was “binds”.
